Experiment [1] addresses T1, GST fusion protein containing residues 1961-2046 of ATM (GST-ATM^1961-2046) (Homo sapiens (Human)) (UniProt Q13315).
T1 sequence: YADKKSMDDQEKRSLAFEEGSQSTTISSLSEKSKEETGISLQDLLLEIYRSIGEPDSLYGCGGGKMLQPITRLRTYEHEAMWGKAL
Description: GST co-purification on glutathione-agarose after co-expression in E. coli.

The target in experiment [2] is T2, GST-ATM^1961-2046 fusion protein containing Ser^1981→Ala (Homo sapiens (Human)) (UniProt Q13315).
T2 sequence: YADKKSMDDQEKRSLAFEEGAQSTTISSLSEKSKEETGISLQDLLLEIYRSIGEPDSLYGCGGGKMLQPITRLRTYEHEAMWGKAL
Described as above.

No constants are given. Whether binding was seen depends on the method and setting. Binding seen in cells or lysates may run through a third protein. Some entries that bind do so weakly or less than the wild type. Sequences can lack the tags named with a protein.

B1: 6×-Histidine (6×-His) fusion protein containing the C-terminal kinase domain of ATM, residues 2712-3056 (enzyme, not shown: small tags and cut ends)
chain: RRQLVKGRDDLRQDAVMQQVFQMCNTLLQRNTETRKRKLTICTYKVVPLSQRSGVLEWCTGTVPIGEFLVNNEDGAHKRYRPNDFSAFQCQKKMMEVQKKSFEEKYEVFMDVCQNFQPVFRYFCMEKFLDPAIWFEKRLAYTRSVATSSIVGYILGLGDRHVQNILINEQSAELVHIDLGVAFEQGKILPTPETVPFRLTRDIVDGMGITGVEGVFRRCCEKTMEVMRNSQETLLTIVEVLLYDPLFDWTMNPLKALYLQQRPEDETELHPTLNADDQECKRNLSDIDQSFDKVAERVLMRLQEKLKGVEEGTVLSVGGQVNLLIQQAIDPKNLSRLFPGWKAWV
As for B1, the binding entry in experiment [1] and in experiment [2] was “binds” in each case.

The values are drawn from patent US20030077661A1 (ST JUDE CHILDREN S RESEARCH HOSPITAL, published 2003).
